Experimental data as given in PubChem BioAssay AID330 (DTP/NCI, 2004).
The list does not hold the whole screen: it gathers tests that were run many times, whatever their T/C, doses with no T/C, and many T/C values between a quarter and a half above the control. Other doses and runs of a compound stand elsewhere. T/C: endpoint of the treated group in % of that of the vehicle group. Some doses have a count of surviving animals in place of a T/C: the source files T/C as zero there, which appears to mark a toxic dose or a test without result, not a measured value. Some doses without a T/C left all or most animals alive at the check, yet need not have been tolerated: survival well below the control is almost never listed, so the zero probably covers shortened survival too. Counts of survivors are from the toxicity check (mostly the fifth day) where no day follows; animals may have died later. Schedule codes are those of the source, taken here to give the interval after Q, in days (D) or hours (H), and the number of doses after X. Some entries hold several experiments; their values stand side by side, smallest first. Some molecules as drawn cover several salts, stereoisomers or complexes of the source; a dose is that of the sample tested. Counts like (3×) say how often a value occurs here. For survival time, this PubChem deposit counts one and a half times the control or more as active, and values a quarter to a half above the control carry no call in these data; other NCI protocols may use other cut-offs.

Test system: P388 leukemia ip, CD2F1 mice, survival T/C
Test: NCI In Vivo Anticancer Drug Screen. Data for tumor model P388 Leukemia (intraperitoneal) in CD2F1 (CDF1) mice
Settings: T/C endpoint: median survival time, higher T/C = longer survival
[1] = dose: 240.0 mg/kg/injection, schedule: Q01DX005 (ip), vehicle: Klucel (hydroxypropylcellulose) (HPC)
[2] = dose: 120.0 mg/kg/injection, schedule: Q01DX005 (ip), vehicle: saline with Tween-80
[3] = dose: 240.0 mg/kg/injection, schedule: Q01DX005 (ip), vehicle: saline with Tween-80
[4] = dose: 400.0 mg/kg/injection, schedule: Q01DX001 (ip), vehicle: Klucel (hydroxypropylcellulose) (HPC)
[5] = dose: 12.5 mg/kg/injection, schedule: Q01DX009 (ip), vehicle: saline
[6] = dose: 50.0 mg/kg/injection, schedule: Q01DX009 (ip), vehicle: saline
[7] = dose: 25.0 mg/kg/injection, schedule: Q01DX009 (ip), vehicle: saline with Tween-80
[8] = dose: 60.0 mg/kg/injection, schedule: Q01DX005 (ip), vehicle: saline with Tween-80
[9] = dose: 200.0 mg/kg/injection, schedule: Q01DX009 (ip), vehicle: saline with Tween-80
[10] = dose: 200.0 mg/kg/injection, schedule: Q01DX005 (ip), vehicle: saline with Tween-80
[11] = dose: 200.0 mg/kg/injection, schedule: Q01DX005 (ip), vehicle: Klucel (hydroxypropylcellulose) (HPC)

O=[N+]([O-])c1ccc(Cl)cc1C(Nc1nncs1)Nc1nncs1
T/C [1]: 126 % of control

COC(=O)c1nc(NN)[nH]c(=O)c1C
survivor count [2]: 2 of 6
survivor count [3]: 0 of 6

COCc1nnc2c(N)nccn12
survivor count [4]: 0 of 6

CC(C)C(=O)CCCN1C(=O)c2ccccc2C1=O
survivor count (dose: 200.0 mg/kg/injection, schedule: Q01DX009 (ip), vehicle: distilled water + Tween-80): 2 of 6

NS(=O)(=O)c1cc([N+](=O)[O-])c(SSc2sc(S(N)(=O)=O)cc2[N+](=O)[O-])s1
survivor count [4]: 2 of 6

Cc1ccc(C)c(NC(=O)C#N)c1
survivor count [2]: 0 of 6
survivor count [3]: 0 of 6

CC(=O)Nc1ccc(S(=O)(=O)N/N=C/C(=O)O)cc1
T/C (dose: 25.0 mg/kg/injection, schedule: Q01DX009 (ip), vehicle: other): 137 % of control
T/C (dose: 50.0 mg/kg/injection, schedule: Q01DX009 (ip), vehicle: other): 146 % of control
survivor count (dose: 100.0 mg/kg/injection, schedule: Q01DX009 (ip), vehicle: other): 5 of 6
survivor count (dose: 200.0 mg/kg/injection, schedule: Q01DX009 (ip), vehicle: other): 3 of 6

CC([NH-])C(=O)O.CC([NH-])C(=O)O.[Cu+2] (stereo not given)
survivor count (dose: 6.25 mg/kg/injection, schedule: Q01DX009 (ip), vehicle: Klucel (hydroxypropylcellulose) (HPC)): 6 of 6
survivor count (dose: 25.0 mg/kg/injection, schedule: Q01DX009 (ip), vehicle: Klucel (hydroxypropylcellulose) (HPC)): 0 of 6
survivor count (dose: 50.0 mg/kg/injection, schedule: Q01DX009 (ip), vehicle: Klucel (hydroxypropylcellulose) (HPC)): 0 of 6
survivor count (dose: 100.0 mg/kg/injection, schedule: Q01DX009 (ip), vehicle: Klucel (hydroxypropylcellulose) (HPC)): 0 of 6
survivor count (dose: 200.0 mg/kg/injection, schedule: Q01DX009 (ip), vehicle: Klucel (hydroxypropylcellulose) (HPC)): 0 of 6

CN(C)CC(CN(C)C)C(=O)c1ccccc1
T/C [5]: 125 and 127 % of control
survivor count [6]: 0 of 5, 2 of 6, 3 of 6
survivor count (dose: 100.0 mg/kg/injection, schedule: Q01DX009 (ip), vehicle: saline): 0 of 5 and 0 of 6 (2×)
survivor count (dose: 200.0 mg/kg/injection, schedule: Q01DX009 (ip), vehicle: saline): 0 of 6 (2×)

CCCCNC(=O)Nc1ccc(C(=O)OCCCC)cc1
survivor count (dose: 400.0 mg/kg/injection, schedule: Q04DX003 (ip), vehicle: saline with Tween-80): 6 of 6

N#Cc1c(-c2ccc(Cl)cc2)cn2c1[nH]c(=O)c1c3c(sc12)CCCC3
survivor count [3]: 6 of 6

O=C1CC[C@H]2[C@@H]3N1c1ccccc1[C@@]31CCN3C/C(=C/CBr)[C@@H]2C[C@H]31
survivor count (dose: 30.0 mg/kg/injection, schedule: Q01DX005 (ip), vehicle: Klucel (hydroxypropylcellulose) (HPC)): 1 of 6
survivor count (dose: 60.0 mg/kg/injection, schedule: Q01DX005 (ip), vehicle: Klucel (hydroxypropylcellulose) (HPC)): 0 of 6
survivor count (dose: 120.0 mg/kg/injection, schedule: Q01DX005 (ip), vehicle: Klucel (hydroxypropylcellulose) (HPC)): 0 of 6
survivor count [1]: 0 of 6

Cn1c(=O)c2c(nc(CCCCc3nc4c(c(=O)n(C)c(=O)n4C)n3C)n2C)n(C)c1=O
survivor count (dose: 12.5 mg/kg/injection, schedule: Q01DX009 (ip), vehicle: saline with Tween-80): 6 of 6
survivor count [7]: 6 of 6

C[n+]1ccc2cc(-c3ccccc3)c3ccccc3c2c1
survivor count [5]: 6 of 6
survivor count (dose: 25.0 mg/kg/injection, schedule: Q01DX009 (ip), vehicle: saline): 5 of 6
survivor count [6]: 1 of 6

O=C1c2ccc(-c3ccccc3)cc2C(=O)c2cc3c(cc21)OCO3
survivor count [8]: 6 of 6
survivor count [2]: 6 of 6
survivor count [3]: 6 of 6

CCOC(=O)c1ccc(NCc2ccc(CNc3ccc(C(=O)OCC)cc3)cc2)cc1
survivor count [7]: 6 of 6
survivor count (dose: 50.0 mg/kg/injection, schedule: Q01DX009 (ip), vehicle: saline with Tween-80): 6 of 6
survivor count (dose: 100.0 mg/kg/injection, schedule: Q01DX009 (ip), vehicle: saline with Tween-80): 6 of 6
survivor count [9]: 6 of 6

O=Cc1ncccc1[N+](=O)[O-]
survivor count (dose: 200.0 mg/kg/injection, schedule: Q01DX009 (ip), vehicle: saline + Tween-80 + alcohol): 0 of 6

CN(C)c1ccc(-c2nn(C)c3nc(=O)n(C)c(=O)c-3[n+]2[O-])cc1
survivor count (dose: 12.5 mg/kg/injection, schedule: Q01DX001 (ip), vehicle: saline): 3 of 6
survivor count (dose: 25.0 mg/kg/injection, schedule: Q01DX001 (ip), vehicle: saline): 1 of 6 and 2 of 6
survivor count (dose: 50.0 mg/kg/injection, schedule: Q01DX001 (ip), vehicle: saline): 0 of 6
survivor count (dose: 100.0 mg/kg/injection, schedule: Q01DX001 (ip), vehicle: saline): 0 of 6
survivor count (dose: 200.0 mg/kg/injection, schedule: Q01DX001 (ip), vehicle: saline): 1 of 6
survivor count (dose: 400.0 mg/kg/injection, schedule: Q01DX001 (ip), vehicle: saline): 0 of 6

CCOc1cc(CC[N+](C)(C)C)cc2c1ccc1ccc(OC)c(OC)c12
survivor count (dose: 50.0 mg/kg/injection, schedule: Q01DX005 (ip), vehicle: saline with Tween-80): 0 of 6
survivor count (dose: 100.0 mg/kg/injection, schedule: Q01DX005 (ip), vehicle: saline with Tween-80): 0 of 6
survivor count [10]: 0 of 6

CP(=O)(NN)c1ccccc1 (stereo not given)
survivor count (dose: 100.0 mg/kg/injection, schedule: Q01DX009 (ip), vehicle: water): 6 of 6
survivor count (dose: 200.0 mg/kg/injection, schedule: Q01DX009 (ip), vehicle: water): 4 of 6

CC(C)(C)c1cc2c3c(c1)C(C(F)(F)F)(C(F)(F)F)OS3(=O)(O)OC2(C(F)(F)F)C(F)(F)F
survivor count [10]: 0 of 6

CC(C)=NNC(N)=S
survivor count (dose: 50.0 mg/kg/injection, schedule: Q04DX003 (ip), vehicle: Klucel (hydroxypropylcellulose) (HPC)): 1 of 6
survivor count (dose: 100.0 mg/kg/injection, schedule: Q04DX003 (ip), vehicle: Klucel (hydroxypropylcellulose) (HPC)): 1 of 6
survivor count (dose: 200.0 mg/kg/injection, schedule: Q04DX003 (ip), vehicle: Klucel (hydroxypropylcellulose) (HPC)): 0 of 6
survivor count (dose: 400.0 mg/kg/injection, schedule: Q04DX003 (ip), vehicle: Klucel (hydroxypropylcellulose) (HPC)): 0 of 6

CC(C)(C)c1cc(C(c2cc3c(cc2O)OCO3)N2CCOCC2)cc(C(C)(C)C)c1O (stereo not given)
T/C [3]: 127 and 134 % of control
survivor count (dose: 480.0 mg/kg/injection, schedule: Q01DX005 (ip), vehicle: saline with Tween-80): 1 of 6

CCOC(=O)[C@@H](F)[C@H](Br)C(=O)OCC
T/C [9]: 125 and 126 % of control
survivor count (dose: 400.0 mg/kg/injection, schedule: Q01DX009 (ip), vehicle: saline with Tween-80): 3 of 6

CC1CN(C(C)(C)C)CO1 (stereo not given)
T/C (dose: 25.0 mg/kg/injection, schedule: Q01DX005 (ip), vehicle: saline): 126 % of control
survivor count (dose: 100.0 mg/kg/injection, schedule: Q01DX005 (ip), vehicle: saline): 2 of 6

Cc1ccc2c(c1)C(=O)c1cc3c(cc1C2=O)OCO3
survivor count [8]: 6 of 6
survivor count [2]: 6 of 6

C=CCNCCC1CCCCCC1
survivor count (dose: 100.0 mg/kg/injection, schedule: Q01DX005 (ip), vehicle: Klucel (hydroxypropylcellulose) (HPC)): 5 of 5
survivor count [11]: 0 of 5

CCN(C)N=Nc1ccc(C(N)=O)cc1
T/C (dose: 50.0 mg/kg/injection, schedule: Q01DX005 (ip), vehicle: Klucel (hydroxypropylcellulose) (HPC)): 127 % of control
T/C (dose: 100.0 mg/kg/injection, schedule: Q01DX005 (ip), vehicle: Klucel (hydroxypropylcellulose) (HPC), evaluated on day 20): 136 % of control
T/C (dose: 100.0 mg/kg/injection, schedule: Q01DX005 (ip), vehicle: Klucel (hydroxypropylcellulose) (HPC), evaluated on day 30): 136 % of control
survivor count [11]: 5 of 5
